Experimental data: PubChem BioAssay (NCATS)
The inconclusive results got no clear call from the source; some entries with a clear call stand among them for comparison. A potency beside an inconclusive call is a rough fit, not a confirmed value. The source made the active and inactive calls. The call rests on the fitted dose curve; in most records, active means well fitted cell-killing curve with a large enough effect; inconclusive means small, poorly fitted or top-dose-only effect, or effect the other way; inactive means no such curve, though single readings can be large or run the other way.

Legend:
[1] = Quantitative High-Throughput drug screen in 47 multiple myeloma cell lines against the NCATS MIPE library collection: H1112_PLB cell viability assay (AID 1918967; further: nearly all actives have a fitted effect of over 30% in size); details: H1112 myeloma cells viability, ATP luminescence, 48 h; viability: at 45.8 µM (top of the series)
Method in brief: (§1)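 qHTS of the MIPE 4.0 collection: 500 myeloma cells/well, 48 h drug exposure at 37C in 5% CO2, then CellTiter-Glo for 5 min at room temperature before luminescence reading.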

[2] = Quantitative High-Throughput drug screen in 47 multiple myeloma cell lines against the NCATS MIPE library collection: KMS12BM_JCRB cell viability assay (AID 1918971); further: nearly all actives have a fitted effect of over 35% in size
Method in brief: (§2)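 Viability readout: CellTiter-Glo luminescence following 5 min room-temperature incubation with reagent. Prior exposure: 48 h, 37C, humidified 5% CO2, 500 cells per well.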

[3] = Quantitative High-Throughput drug screen in 47 multiple myeloma cell lines against the NCATS MIPE library collection: KMS12PE_JCRB cell viability assay (AID 1918972); details: KMS12PE myeloma viability, CellTiter-Glo ATP, 48 h; viability: at 45.8 µM (top of the series); further: nearly all actives have a fitted effect of over 30% in size
Method in brief: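 We plated 500 myeloma cells per well, pinned in MIPE 4.0 compounds, and incubated for 48 hours at 37C. ATP was then quantified with CellTiter-Glo, with DMSO and media-only wells defining 100% and 0%.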

[4] = Quantitative High-Throughput drug screen in 47 multiple myeloma cell lines against the NCATS MIPE library collection: KMS20_JCRB cell viability assay (AID 1918973); details: CellTiter-Glo ATP, 48 h; viability (% of DMSO): at 45.8 µM (top of the series); further: nearly all actives have a fitted effect of over 45% in size
Method in brief: as §1

[5] = Quantitative High-Throughput drug screen in 47 multiple myeloma cell lines against the NCATS MIPE library collection: KMS21BM_JCRB cell viability assay (AID 1918974); details: ATP luminescence, 48 h; viability: at 45.8 µM (top of the series) unless noted
Method in brief: as §1

[6] = Quantitative High-Throughput drug screen in 47 multiple myeloma cell lines against the NCATS MIPE library collection: KMS26_JCRB cell viability assay (AID 1918975); details: KMS26 myeloma cells viability, CellTiter-Glo ATP, 48 h; viability (% of DMSO): at 45.8 µM (top of the series); further: nearly all actives have a fitted effect of over 45% in size
Method in brief: as §2

[7] = Quantitative High-Throughput drug screen in 47 multiple myeloma cell lines against the NCATS MIPE library collection: MMM1_PLB cell viability assay (AID 1918976); further: nearly all actives have a fitted effect of over 35% in size
Method in brief: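 Plated at 500 cells per well, myeloma lines received MIPE 4.0 compounds by pin tool. Following 48 h culture at 37 °C, CellTiter-Glo luminescence gave viability relative to DMSO and media-only controls.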

[8] = Quantitative High-Throughput drug screen in 47 multiple myeloma cell lines against the NCATS MIPE library collection: KMS27_JCRB cell viability assay (AID 1918970); details: KMS27 myeloma cells, CellTiter-Glo ATP viability, 48 h; viability (% of DMSO): at 45.8 µM (top of the series) unless noted; further: nearly all actives have a fitted effect of over 30% in size
Method in brief: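 Viability inhibition screen, 48 h compound exposure, luminescent ATP read-out.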

[9] = Quantitative High-Throughput drug screen in 47 multiple myeloma cell lines against the NCATS MIPE library collection: Karpas25_ECACC cell viability assay (AID 1918968; further: nearly all actives have a fitted effect of over 35% in size); details: Karpas25 myeloma viability, CellTiter-Glo ATP, 48 h; viability (% of control): at 45.8 µM (top of the series)
Method in brief: as §1
Potency means the concentration at half of the fitted maximal effect.

Cc1cc([C@@H](C)Nc2ccccc2C(=O)O)c2nc(N3CCOCC3)cc(=O)n2c1
Potency [1]: inconclusive: 7.62 µM [cytotoxic, full curve]
Potency [2]: inconclusive: 67.9 µM [cytotoxic, single point]
Potency [3]: inconclusive: 34 µM [cytotoxic, partial curve]
Potency [4]: inconclusive: 6.05 µM [cytotoxic, partial curve, poor fit]
viability [5]: active: 15.1% [at 92.2 µM]
Potency [6]: active: 27 µM
Potency [7]: active: 19.1 µM

COc1ccc(C=Cc2cc(OC)c(OC)c(OC)c2)cc1NC(=O)[C@H](N)CO
viability [1]: inconclusive: 20.9% [cytotoxic]
viability (% of DMSO) [8]: inconclusive: 16.9% [cytotoxic]
Potency [6]: active: 0.0332 µM

OC(Cn1cncn1)(Cn1cncn1)c1ccc(F)cc1F
Potency [9]: inactive
Potency [8]: inconclusive: 0.0833 µM [cytotoxic, full curve, poor fit]
Potency [2]: inconclusive: 9.35 µM [cytotoxic, partial curve, poor fit]
Potency [4]: inconclusive: 0.0019 µM [rising, full curve, poor fit]
Potency [5]: inconclusive: 26.4 µM [rising, partial curve]
Potency [6]: inactive
Potency [7]: active: 10.5 µM

CCC(C=C[C@@H]1OC(=O)C=C[C@H]1C)=C[C@H](C)CC=CC(C)=C[C@@H](C)C(=O)[C@@H](C)[C@H](O)[C@@H](C)CC(C)=CC(=O)O
Potency [9]: active: 0.0196 µM
Potency [4]: active: 0.0088 µM

NC[C@H](O)c1ccc(O)c(O)c1
Potency [9]: inconclusive: 14.8 µM [cytotoxic, partial curve]
Potency [3]: inactive
Potency [4]: inconclusive: 0.166 µM [cytotoxic, full curve, poor fit]
Potency [5]: inconclusive: 29.6 µM [rising, partial curve]
Potency [6]: inconclusive: 0.332 µM [cytotoxic, full curve, poor fit]

CO[C@@]12[C@H](COC(N)=O)C3=C(C(=O)C(C)=C(N)C3=O)N1C[C@@H]1N[C@@H]12
Potency [9]: inconclusive: 33.2 µM [cytotoxic, single point]
Potency [3]: inconclusive: 0.935 µM [cytotoxic, full curve, poor fit]
Potency [4]: inconclusive: 33.2 µM [cytotoxic, single point]
Potency [5]: inconclusive: 10.5 µM [rising, full curve, poor fit]

NC1(C(=O)N[C@@H](CCO)c2ccc(Cl)cc2)CCN(c2ncnc3[nH]ccc23)CC1
Potency [9]: active: 0.418 µM
Potency [2]: inactive
Potency [3]: active: 0.418 µM
Potency [4]: active: 1.18 µM
Potency [5]: inconclusive: 37.2 µM [rising, partial curve, poor fit]
Potency [7]: active: 0.0105 µM

COC(=O)[C@@H]1CC2=CC(=O)CC[C@]2(C)[C@@]23O[C@@H]2C[C@@]2(C)[C@H](CC[C@@]24CCC(=O)O4)[C@@H]13
Potency [9]: inactive
Potency [2]: inconclusive: 0.0372 µM [rising, full curve, poor fit]
Potency [3]: inactive
Potency [4]: inactive
Potency [6]: inconclusive: 0.001 µM [cytotoxic]
Potency [7]: inconclusive: 0.0059 µM [rising, full curve, poor fit]

CC(C)CN(C[C@H](O)[C@H](Cc1ccccc1)NC(=O)O[C@H]1CCOC1)S(=O)(=O)c1ccc(N)cc1
Potency [9]: inconclusive: 23.5 µM [cytotoxic, single point]
Potency [2]: inconclusive: 11.8 µM [cytotoxic, partial curve, poor fit]
Potency [5]: inconclusive: 37.2 µM [rising, single point]
Potency [6]: active: 8.33 µM
Potency [7]: inconclusive: 1.87 µM [cytotoxic, full curve, poor fit]

CCN1CCN(Cc2ccc(-c3cc4c(N[C@H](C)c5ccccc5)ncnc4[nH]3)cc2)CC1
Potency [1]: inconclusive: 18.7 µM [cytotoxic, partial curve, poor fit]
Potency [2]: inconclusive: 9.35 µM [cytotoxic, partial curve, poor fit]
Potency [3]: active: 0.0469 µM
Potency [6]: active: 0.935 µM
Potency [7]: active: 18.7 µM

COc1ccccc1[C@H](c1cccc2ccccc12)[C@@](C)(C#N)C(=O)N1CCC(c2cccc(C(F)(F)F)c2)CC1
Potency [1]: inconclusive: 5.9 µM [cytotoxic, partial curve]
Potency [3]: inconclusive: 1.66 µM [cytotoxic, full curve]
Potency [5]: active: 9.35 µM

CN1CCc2c(n(Cc3ccc(C(=O)NO)cc3)c3ccccc23)C1
Potency [1]: inconclusive: 18.7 µM [cytotoxic, partial curve]
Potency [3]: inconclusive: 0.296 µM [cytotoxic, full curve, poor fit]
Potency [4]: inconclusive: 8.33 µM [cytotoxic, partial curve, poor fit]
Potency [5]: inconclusive: 33.2 µM [rising, partial curve, poor fit]
Potency [7]: active: 14.8 µM

COc1cc2nc(-c3cc(F)ccc3O)nc(N[C@@H]3CNC[C@@H]3C(C)(C)O)c2cc1OC
Potency [9]: active: 4.18 µM
Potency [8]: active: 5.9 µM
Potency [4]: inconclusive: 1.87 µM [cytotoxic, full curve, poor fit]
Potency [5]: active: 0.935 µM
Potency [7]: inconclusive: 37.2 µM [cytotoxic, single point]

CN(C)c1ccc(C(=C2C=CC(=[N+](C)C)C=C2)c2ccc(N(C)C)cc2)cc1
Potency [9]: active: 0.0118 µM
Potency [8]: inconclusive: 0.0935 µM [cytotoxic, full curve, poor fit]
viability (% of DMSO) [4]: inconclusive: 1.58% [cytotoxic]
Potency [5]: inconclusive: 33.2 µM [rising, partial curve, poor fit]

C#CCC(Cc1cnc2nc(N)nc(N)c2n1)c1ccc(C(=O)N[C@@H](CCC(=O)O)C(=O)O)cc1 (stereo not given in full)
Potency [8]: inactive
Potency [2]: inactive
Potency [4]: inactive
Potency [5]: inconclusive: 1.18 µM [cytotoxic, full curve, poor fit]
Potency [7]: inactive

Cc1cc(Cl)ccc1OCCCC(=O)NO
Potency [1]: active: 7.43 µM
Potency [2]: active: 16.6 µM
Potency [5]: inconclusive: 20.9 µM [cytotoxic, partial curve, poor fit]
Potency [6]: active: 8.33 µM

CN(C)CCOc1ccc(C(=C(CCCl)c2ccccc2)c2ccccc2)cc1
Potency [1]: inconclusive: 8.33 µM [cytotoxic, full curve, poor fit]
Potency [2]: inconclusive: 5.26 µM [cytotoxic, partial curve, poor fit]
Potency [3]: inactive
Potency [4]: inconclusive: 0.0026 µM [cytotoxic, full curve, poor fit]
Potency [5]: inconclusive: 0.0033 µM [cytotoxic, full curve, poor fit]
Potency [6]: inconclusive: 37.2 µM [cytotoxic, single point]

COc1ccc(Nc2cc(-c3cnc(N)nc3)nc(N3CCOCC3)n2)cn1
Potency [1]: inconclusive: 5.26 µM [cytotoxic, partial curve]
Potency [5]: inconclusive: 29.6 µM [rising, partial curve, poor fit]
Potency [6]: active: 4.18 µM

CCn1cc(C(=O)O)c(=O)c2cc(F)c(N3CCN(C)CC3)cc21
Potency [1]: inactive
Potency [4]: inconclusive: 11.8 µM [cytotoxic, single point]
Potency [5]: inconclusive: 16.6 µM [rising, partial curve]
Potency [7]: inconclusive: 8.33 µM [cytotoxic, partial curve, poor fit]

CC#C[C@]1(O)CC[C@H]2[C@@H]3CCC4=CC(=O)CCC4=C3[C@@H](c3ccc(N(C)C)cc3)C[C@@]21C
Potency [4]: active: 0.743 µM
Potency [5]: inconclusive: 0.118 µM [cytotoxic, full curve, poor fit]

COc1ccc(S(=O)(=O)Nc2cc(-c3c(O)ccc4ccccc34)c(O)c3ccccc23)cc1
Potency [4]: active: 9.35 µM
Potency [5]: active: 18.7 µM

CCCCc1nc2cc(C=CC(=O)NO)ccc2n1CCN(CC)CC
Potency [3]: inconclusive: 0.0166 µM [cytotoxic, full curve, poor fit]
Potency [5]: inconclusive: 0.0093 µM [cytotoxic, full curve, poor fit]
Potency [7]: active: 0.418 µM

COc1ccc(-c2oc3c(CC=C(C)C)c(O)cc(O)c3c(=O)c2O)cc1
Potency [2]: inconclusive: 26.4 µM [cytotoxic, single point]
Potency [3]: inconclusive: 0.0012 µM [rising, full curve, poor fit]
Potency [4]: inconclusive: 0.003 µM [rising, full curve, poor fit]
Potency [5]: inconclusive: 0.0296 µM [rising, full curve, poor fit]
Potency [7]: active: 20.9 µM

CC1C(=O)OC2C(O)C34C5CC(C(C)(C)C)C36C(OC(=O)C6O)OC4(C(=O)O5)C12O (stereo not given)
Potency [8]: inactive
Potency [2]: inactive
Potency [5]: inconclusive: 9.35 µM [rising, partial curve]
Potency [6]: inactive
